Measured values from the supplement of paper PMC12067093, “Discovery and optimisation of a covalent ligand for TRIM25 and its application to targeted protein ubiquitination” (Chemical Science, 2025).
The list shows a part of the results.

Protein sequences, listed by entry. Tags and fused reporters are not part of them. Lines headed by an entry give the natural chain unless they say otherwise; changes in a name come on top.
UniProt Q9ULP9: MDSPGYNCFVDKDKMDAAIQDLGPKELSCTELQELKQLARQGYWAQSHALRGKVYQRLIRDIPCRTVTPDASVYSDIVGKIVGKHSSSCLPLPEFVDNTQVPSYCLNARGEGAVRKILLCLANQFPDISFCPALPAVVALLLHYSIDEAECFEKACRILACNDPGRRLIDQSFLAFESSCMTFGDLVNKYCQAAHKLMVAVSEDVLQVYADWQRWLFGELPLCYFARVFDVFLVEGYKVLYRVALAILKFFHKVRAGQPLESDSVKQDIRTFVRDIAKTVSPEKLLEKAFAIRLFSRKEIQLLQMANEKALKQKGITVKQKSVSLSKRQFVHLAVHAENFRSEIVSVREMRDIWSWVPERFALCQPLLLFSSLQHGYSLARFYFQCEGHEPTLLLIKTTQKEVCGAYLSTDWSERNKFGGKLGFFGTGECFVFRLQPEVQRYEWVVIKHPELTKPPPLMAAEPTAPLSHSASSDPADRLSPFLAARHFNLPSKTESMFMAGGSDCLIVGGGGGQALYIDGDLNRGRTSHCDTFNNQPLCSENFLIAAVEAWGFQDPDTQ
UniProt Q13395: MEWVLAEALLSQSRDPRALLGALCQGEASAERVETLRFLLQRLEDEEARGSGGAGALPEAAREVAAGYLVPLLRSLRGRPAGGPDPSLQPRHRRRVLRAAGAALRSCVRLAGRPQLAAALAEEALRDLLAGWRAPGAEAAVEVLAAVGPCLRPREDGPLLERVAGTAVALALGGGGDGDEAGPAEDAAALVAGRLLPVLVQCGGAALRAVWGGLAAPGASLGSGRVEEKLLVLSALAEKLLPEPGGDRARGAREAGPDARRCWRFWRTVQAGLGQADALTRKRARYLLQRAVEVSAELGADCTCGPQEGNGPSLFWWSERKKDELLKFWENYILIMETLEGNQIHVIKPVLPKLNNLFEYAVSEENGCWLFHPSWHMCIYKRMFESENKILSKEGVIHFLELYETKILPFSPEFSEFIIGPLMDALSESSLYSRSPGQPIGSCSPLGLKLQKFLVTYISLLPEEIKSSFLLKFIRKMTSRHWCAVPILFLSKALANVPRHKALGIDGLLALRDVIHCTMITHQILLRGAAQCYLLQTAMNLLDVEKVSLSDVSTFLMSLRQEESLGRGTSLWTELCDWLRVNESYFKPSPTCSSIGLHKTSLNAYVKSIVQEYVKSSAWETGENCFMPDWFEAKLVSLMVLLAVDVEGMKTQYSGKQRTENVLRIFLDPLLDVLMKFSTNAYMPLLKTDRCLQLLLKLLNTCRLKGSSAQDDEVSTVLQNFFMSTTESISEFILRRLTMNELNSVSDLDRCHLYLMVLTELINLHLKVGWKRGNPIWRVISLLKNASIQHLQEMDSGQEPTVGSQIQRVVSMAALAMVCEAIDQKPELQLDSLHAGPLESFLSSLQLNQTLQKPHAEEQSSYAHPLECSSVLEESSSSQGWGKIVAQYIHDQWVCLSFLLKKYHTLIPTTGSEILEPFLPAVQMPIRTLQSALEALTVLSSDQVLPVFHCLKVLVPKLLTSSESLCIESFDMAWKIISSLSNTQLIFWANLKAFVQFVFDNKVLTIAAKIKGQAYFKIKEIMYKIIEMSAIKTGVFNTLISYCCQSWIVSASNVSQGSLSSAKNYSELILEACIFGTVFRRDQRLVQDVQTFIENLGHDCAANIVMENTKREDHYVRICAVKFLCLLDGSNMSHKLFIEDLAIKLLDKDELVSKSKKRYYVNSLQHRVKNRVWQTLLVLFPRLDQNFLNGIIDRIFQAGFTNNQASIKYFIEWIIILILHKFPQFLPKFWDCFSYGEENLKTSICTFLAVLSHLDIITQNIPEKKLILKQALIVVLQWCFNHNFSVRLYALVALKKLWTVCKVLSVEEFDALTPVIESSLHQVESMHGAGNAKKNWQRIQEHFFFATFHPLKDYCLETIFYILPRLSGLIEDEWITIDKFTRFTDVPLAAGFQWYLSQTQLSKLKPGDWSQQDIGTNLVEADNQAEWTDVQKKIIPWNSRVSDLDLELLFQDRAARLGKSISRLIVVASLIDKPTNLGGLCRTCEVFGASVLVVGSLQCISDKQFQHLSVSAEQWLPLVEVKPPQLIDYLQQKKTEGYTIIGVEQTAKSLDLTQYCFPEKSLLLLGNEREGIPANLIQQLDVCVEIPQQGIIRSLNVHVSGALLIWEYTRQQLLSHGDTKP
UniProt P49848, whole entry, looked up: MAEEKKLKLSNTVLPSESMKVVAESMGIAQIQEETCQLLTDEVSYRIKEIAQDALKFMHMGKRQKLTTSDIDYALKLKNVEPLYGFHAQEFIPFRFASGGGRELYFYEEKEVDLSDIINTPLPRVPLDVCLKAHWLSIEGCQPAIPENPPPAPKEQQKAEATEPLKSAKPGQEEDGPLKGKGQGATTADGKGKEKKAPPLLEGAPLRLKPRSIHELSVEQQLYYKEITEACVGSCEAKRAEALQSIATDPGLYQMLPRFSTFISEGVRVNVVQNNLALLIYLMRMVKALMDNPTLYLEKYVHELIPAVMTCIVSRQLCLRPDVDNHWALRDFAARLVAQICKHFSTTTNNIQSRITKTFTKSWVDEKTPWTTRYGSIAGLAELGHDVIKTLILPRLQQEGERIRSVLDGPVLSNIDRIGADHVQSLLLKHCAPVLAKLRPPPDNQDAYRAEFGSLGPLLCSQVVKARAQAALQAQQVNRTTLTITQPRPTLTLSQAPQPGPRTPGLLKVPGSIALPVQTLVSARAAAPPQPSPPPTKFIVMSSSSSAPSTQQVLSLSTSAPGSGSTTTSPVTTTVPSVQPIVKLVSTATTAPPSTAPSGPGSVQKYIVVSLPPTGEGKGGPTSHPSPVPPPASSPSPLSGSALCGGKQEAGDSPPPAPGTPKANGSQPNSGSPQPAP
UniProt Q9BTW9: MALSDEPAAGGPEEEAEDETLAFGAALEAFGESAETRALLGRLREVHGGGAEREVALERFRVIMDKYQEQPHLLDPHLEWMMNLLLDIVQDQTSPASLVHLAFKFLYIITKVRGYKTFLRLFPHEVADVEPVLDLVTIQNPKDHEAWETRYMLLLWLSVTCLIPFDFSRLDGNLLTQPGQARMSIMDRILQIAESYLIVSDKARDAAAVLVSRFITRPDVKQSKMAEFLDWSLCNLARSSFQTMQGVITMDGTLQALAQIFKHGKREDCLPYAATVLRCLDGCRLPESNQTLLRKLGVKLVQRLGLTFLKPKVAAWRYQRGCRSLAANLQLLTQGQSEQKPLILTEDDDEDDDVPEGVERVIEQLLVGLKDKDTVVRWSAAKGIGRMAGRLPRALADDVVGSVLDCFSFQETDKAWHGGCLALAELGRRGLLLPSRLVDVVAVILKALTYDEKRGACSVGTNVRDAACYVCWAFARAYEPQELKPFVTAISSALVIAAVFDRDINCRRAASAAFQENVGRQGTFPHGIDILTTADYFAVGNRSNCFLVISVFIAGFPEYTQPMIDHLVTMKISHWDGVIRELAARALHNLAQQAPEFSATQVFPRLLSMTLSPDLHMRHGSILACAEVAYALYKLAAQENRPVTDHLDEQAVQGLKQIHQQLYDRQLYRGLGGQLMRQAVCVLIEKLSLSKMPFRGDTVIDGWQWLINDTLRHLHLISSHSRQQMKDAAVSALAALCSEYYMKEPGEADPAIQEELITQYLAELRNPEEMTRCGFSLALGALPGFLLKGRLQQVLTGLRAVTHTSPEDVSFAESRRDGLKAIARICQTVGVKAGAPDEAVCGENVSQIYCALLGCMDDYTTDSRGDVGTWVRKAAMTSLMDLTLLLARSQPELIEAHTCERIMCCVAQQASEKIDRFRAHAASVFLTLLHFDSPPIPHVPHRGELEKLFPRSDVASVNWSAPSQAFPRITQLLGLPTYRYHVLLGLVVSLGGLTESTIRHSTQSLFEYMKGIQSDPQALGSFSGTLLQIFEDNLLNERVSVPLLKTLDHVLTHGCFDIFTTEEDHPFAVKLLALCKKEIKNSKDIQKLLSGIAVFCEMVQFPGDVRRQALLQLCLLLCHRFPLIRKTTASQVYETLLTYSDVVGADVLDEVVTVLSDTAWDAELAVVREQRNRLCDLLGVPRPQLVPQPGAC
UniProt P26639: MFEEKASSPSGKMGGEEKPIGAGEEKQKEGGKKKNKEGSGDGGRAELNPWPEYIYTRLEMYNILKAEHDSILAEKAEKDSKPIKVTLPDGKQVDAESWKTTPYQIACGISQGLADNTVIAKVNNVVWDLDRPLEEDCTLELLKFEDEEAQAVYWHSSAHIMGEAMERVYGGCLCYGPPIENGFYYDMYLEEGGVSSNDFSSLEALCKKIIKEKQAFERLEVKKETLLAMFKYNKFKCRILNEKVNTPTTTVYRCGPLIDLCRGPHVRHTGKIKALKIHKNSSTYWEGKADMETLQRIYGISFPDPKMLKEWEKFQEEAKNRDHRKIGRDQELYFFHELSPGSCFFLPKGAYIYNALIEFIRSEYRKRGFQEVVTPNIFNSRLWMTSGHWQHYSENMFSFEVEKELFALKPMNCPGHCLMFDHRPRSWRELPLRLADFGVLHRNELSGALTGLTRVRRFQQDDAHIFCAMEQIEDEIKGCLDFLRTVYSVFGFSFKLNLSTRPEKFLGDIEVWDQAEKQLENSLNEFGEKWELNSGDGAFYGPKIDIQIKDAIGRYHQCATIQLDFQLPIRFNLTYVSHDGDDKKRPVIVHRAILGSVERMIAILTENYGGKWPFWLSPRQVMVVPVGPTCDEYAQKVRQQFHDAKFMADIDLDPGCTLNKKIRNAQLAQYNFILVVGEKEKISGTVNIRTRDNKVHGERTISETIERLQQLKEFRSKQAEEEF
UniProt Q92844: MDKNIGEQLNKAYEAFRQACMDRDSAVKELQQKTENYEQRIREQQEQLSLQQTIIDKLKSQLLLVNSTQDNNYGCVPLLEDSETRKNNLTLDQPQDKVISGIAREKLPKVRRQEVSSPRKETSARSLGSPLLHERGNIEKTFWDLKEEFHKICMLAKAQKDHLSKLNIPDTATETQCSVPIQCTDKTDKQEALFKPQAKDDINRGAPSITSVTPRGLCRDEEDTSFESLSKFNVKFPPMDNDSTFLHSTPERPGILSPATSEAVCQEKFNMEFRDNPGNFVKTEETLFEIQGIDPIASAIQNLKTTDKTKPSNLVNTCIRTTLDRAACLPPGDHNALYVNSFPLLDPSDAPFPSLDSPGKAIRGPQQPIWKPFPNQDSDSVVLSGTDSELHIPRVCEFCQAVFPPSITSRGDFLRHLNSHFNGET
UniProt O15533, whole entry, looked up: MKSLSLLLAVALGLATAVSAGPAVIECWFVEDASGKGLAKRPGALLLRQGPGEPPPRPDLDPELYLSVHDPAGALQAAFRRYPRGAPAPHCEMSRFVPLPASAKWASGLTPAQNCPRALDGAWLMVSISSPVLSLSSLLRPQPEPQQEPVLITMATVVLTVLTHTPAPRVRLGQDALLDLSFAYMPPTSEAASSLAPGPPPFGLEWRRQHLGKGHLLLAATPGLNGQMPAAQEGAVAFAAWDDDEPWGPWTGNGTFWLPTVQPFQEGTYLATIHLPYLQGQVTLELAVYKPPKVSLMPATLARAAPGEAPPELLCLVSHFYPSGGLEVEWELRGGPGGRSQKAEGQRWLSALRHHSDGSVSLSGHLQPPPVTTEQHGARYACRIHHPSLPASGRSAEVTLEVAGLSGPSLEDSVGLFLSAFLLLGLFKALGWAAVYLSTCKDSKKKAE
UniProt O60907: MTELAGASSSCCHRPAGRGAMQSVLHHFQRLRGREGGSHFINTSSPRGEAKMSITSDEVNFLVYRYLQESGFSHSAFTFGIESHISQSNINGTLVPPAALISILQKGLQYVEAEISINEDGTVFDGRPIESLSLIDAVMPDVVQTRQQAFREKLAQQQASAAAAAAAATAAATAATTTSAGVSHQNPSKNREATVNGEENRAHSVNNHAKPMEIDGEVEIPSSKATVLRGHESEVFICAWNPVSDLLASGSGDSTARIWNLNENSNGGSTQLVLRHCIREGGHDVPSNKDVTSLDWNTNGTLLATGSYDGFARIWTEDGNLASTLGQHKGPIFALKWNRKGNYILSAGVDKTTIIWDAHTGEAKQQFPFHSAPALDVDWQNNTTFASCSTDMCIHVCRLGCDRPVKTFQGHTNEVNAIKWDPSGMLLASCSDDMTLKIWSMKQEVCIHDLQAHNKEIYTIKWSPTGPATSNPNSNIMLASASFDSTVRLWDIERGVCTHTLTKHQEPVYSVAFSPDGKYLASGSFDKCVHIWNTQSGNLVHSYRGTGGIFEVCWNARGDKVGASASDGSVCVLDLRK

Compound: CC1Cc2ccccc2N1C(=O)C1CCCN(C1)C(=O)CCl (mixture of isomers) [TRIM25 ligand 11 (diastereomer mixture)]
Assay: probe-labelled cysteine peptide fold change vs DMSO (competition) (log2 fold change); higher = less target engagement (more negative = stronger competition)
Conditions: THP-1, incubation time: 4 h
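Also: competitive chemoproteomic profiling in live THP-1 cells with an iodoacetamide desthiobiotin (IA-DTB) probe, comparing probe-labelled peptide intensities in compound-treated cells against DMSO-treated controls.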

| Target | probe-labelled cysteine peptide fold change (10 µM) | probe-labelled cysteine peptide fold change (50 µM) |
| --- | --- | --- |
| TBC1D24_Q9ULP9_386_FYFQCEGHEPTLLLIK (UniProt Q9ULP9) | 0.226 | 0.199 |
| TCEA1_P23193_212_NVLCGNIPPDLFAR (UniProt P23193) | 0.0376 | 0.122 |
| TAPT1_Q6NXT6_562_DLLEIDRFTICGNRID (UniProt Q6NXT6) | -0.305 | -0.344 |
| TARBP1_Q13395_1556_SLDLTQYCFPEK (UniProt Q13395) | -0.0113 | 0.0163 |
| TAF6_P49848_141_AHWLSIEGCQPAIPENPPPAPK (UniProt P49848) | -0.132 | -0.0655 |
| TBCD_Q9BTW9_269_EDCLPYAATVLR (UniProt Q9BTW9) | -0.198 | -0.0833 |
| TBC1D9B_Q66K14_1079_DCATEEDEPPAPELHQDAAR (UniProt Q66K14) | -0.0167 | 0.107 |
| TARS_P26639_107_TTPYQIACGISQGLADNTVIAK (UniProt P26639) | 0.0466 | 0.0371 |
| TARS_P26639_467_RFQQDDAHIFCAMEQIEDEIK (UniProt P26639) | 0.12 | 0.136 |
| TANK_Q92844_218_GLCRDEEDTSFESLSK (UniProt Q92844) | -0.0763 | -0.0844 |
| TAPBP_O15533_91_GAPAPHCEMSR (UniProt O15533) | -0.0661 | -0.0587 |
| TBL1X_O60907_571_VGASASDGSVCVLDLR (UniProt O60907) | 0.0921 | -0.099 |
